{
  "source": "patent US20240325461A1",
  "about": "“COMBINATION THERAPIES FOR THE TREATMENT OF DISEASES” (Research Development Foundation, priority 2023, published 2024)",
  "test_system": "ovariectomized female mice",
  "test": "3-point bending test of femur, curative model",
  "format": "in vivo, C57BL/6J mice",
  "settings": "postmortem, day 60",
  "text": "A curative mouse model for osteoporosis was used for experiments, as follows. 16-week old female C57Bl/6J mice were ovariectomized and left for 2 months to develop the symptoms of osteoporosis and postmenopausal weigh gain and glucose intolerance. Administration of the respective treatment was initiated following these 2 months after the ovariectomies, i.e, once the mice already developed the symptoms of the respective metabolic disease.\nSynergistic improvements from the combination were observed.\nOvariectomy: 16 weeks old C57Bl/6J female mice, obtained through Janvier, were be anesthetised with Xylazin/Ketamin (injection of 120 μl of a mixture of 120 mg/kg ketamine and 16 mg/kg xylazine) and shaved below the ribs on the back side. Betadine was be applied to the area for appropriate disinfection. After a 1-2 cm incision through the skin and the muscle layer just below the ribs, the ovary was localized, the fallopian tube ligated with dissolving suture and the ovary removed. The muscle layer was sutured with dissolving suture, the wound closed with staples and disinfected. The same procedure was/will be performed on the other side. A dose of Tamgesic was/will be administered 4 hours after the surgery, and the staples were removed 7 days after the surgery under isoflurane anesthesia. […]",
  "data": [
    {"smiles": "NCCCC(O)(P(=O)(O)O)P(=O)(O)O", "note": "[alendronate]", "values": [
      {"measurement": "Yield point, femur metaphysis", "result": "not observed to result in a statistically significant increase"},
      {"measurement": "Yield point, femur midshaft", "result": "not observed to result in improvements"}
    ]}
  ]
}
